In this test the target is T1, HPV16 E1 (HA-tagged) (HPV16) (UniProt P03114).
T1 sequence: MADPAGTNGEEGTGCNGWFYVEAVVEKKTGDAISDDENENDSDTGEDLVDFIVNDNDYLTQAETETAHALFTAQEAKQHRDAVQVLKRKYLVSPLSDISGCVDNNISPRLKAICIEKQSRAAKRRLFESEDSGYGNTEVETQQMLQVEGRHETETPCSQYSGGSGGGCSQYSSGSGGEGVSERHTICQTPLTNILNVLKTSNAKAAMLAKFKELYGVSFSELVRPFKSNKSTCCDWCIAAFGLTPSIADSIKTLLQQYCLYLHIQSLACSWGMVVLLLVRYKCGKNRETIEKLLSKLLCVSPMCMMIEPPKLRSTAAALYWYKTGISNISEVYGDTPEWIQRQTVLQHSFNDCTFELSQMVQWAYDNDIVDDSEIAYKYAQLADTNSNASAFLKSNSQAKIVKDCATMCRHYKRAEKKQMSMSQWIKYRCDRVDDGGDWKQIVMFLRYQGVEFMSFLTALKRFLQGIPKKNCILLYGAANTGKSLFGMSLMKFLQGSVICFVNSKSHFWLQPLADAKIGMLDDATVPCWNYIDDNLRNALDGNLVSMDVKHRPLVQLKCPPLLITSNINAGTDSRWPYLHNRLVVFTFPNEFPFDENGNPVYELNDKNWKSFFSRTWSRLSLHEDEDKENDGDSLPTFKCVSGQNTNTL
Briefly: co-IP; C33a cells transfected with pOri and one viral protein alone (HA-E1 or E2); 500 µg lysate in 0.5% NP-40, 50 mM Tris pH 7.8, 150 mM NaCl; antibody (HA, E2 or SMARCAL1) overnight at 4°C, protein A beads, western blot. Background: Immunoblotting shows a protein as a band on a membrane.

No constants are given. Whether binding was seen depends on the method and setting. Binding seen in cells or lysates may run through a third protein. Tags and fused reporters may be left off the sequences shown.

B1: SMARCAL1 (protein, UniProt Q9NZC9 1-954)
chain: MSLPLTEEQRKKIEENRQKALARRAEKLLAEQHQRTSSGTSIAGNPFQAKQGPSQNFPRESCKPVSHGVIFKQQNLSSSSNADQRPHDSHSFQAKGIWKKPEEMPTACPGHSPRSQMALTGISPPLAQSPPEVPKQQLLSYELGQGHAQASPEIRFTPFANPTHKPLAKPKSSQETPAHSSGQPPRDAKLEAKTAKASPSGQNISYIHSSSESVTPRTEGRLQQKSGSSVQKGVNSQKGKCVRNGDRFQVLIGYNAELIAVFKTLPSKNYDPDTKTWNFSMNDYSALMKAAQSLPTVNLQPLEWAYGSSESPSTSSEGQAGLPSAPSLSFVKGRCMLISRAYFEADISYSQDLIALFKQMDSRRYDVKTRKWSFLLEEHSKLIAKVRCLPQVQLDPLPTTLTLAFASQLKKTSLSLTPDVPEADLSEVDPKLVSNLMPFQRAGVNFAIAKGGRLLLADDMGLGKTIQAICIAAFYRKEWPLLVVVPSSVRFTWEQAFLRWLPSLSPDCINVVVTGKDRLTAGLINIVSFDLLSKLEKQLKTPFKVVIIDESHFLKNSRTARCRAAMPVLKVAKRVILLSGTPAMSRPAELYTQIIAVKPTFFPQFHAFGLRYCDAKRMPWGWDYSGSSNLGELKLLLEEAVMLRRLKSDVLSQLPAKQRKIVVIAPGRINARTRAALDAAAKEMTTKDKTKQQQKDALILFFNRTAEAKIPSVIEYILDLLESGREKFLVFAHHKVVLDAITQELERKHVQHIRIDGSTSSAEREDLCQQFQLSERHAVAVLSITAANMGLTFSSADLVVFAELFWNPGVLIQAEDRVHRIGQTSSVGIHYLVAKGTADDYLWPLIQEKIKVLAEAGLSETNFSEMTESTDYLYKDPKQQKIYDLFQKSFEKEGSDMELLEAAESFDPGSASGTSGSSSQNMGDTLDESSLTASPQKKRRFEFFDNWDSFTSPL
For B1, the binding entry was “no binding”.

Source of the values: publication PMC13170247.
